Assay results as given in article PMC10269768.
No constants are given. Whether binding was seen depends on the method and setting. Binding calls can cover weak binding; strength is not graded here.

Target: Ada3 (Beauveria bassiana), BD-Ada3 (Beauveria bassiana) (UniProt J5K3I2)
Assay: two-hybrid; Y2HGold yeast co-transformed with pGADT7 (AD, prey) and pGBKT7 (BD, bait) plasmids; growth on SD-His-Leu-Trp medium with X-α-Gal

binding: binds
Substance: Ada2 (Beauveria bassiana), AD-Ada2 (from UniProt J4UTH7)
